{"source": "PubChem BioAssay AID1224826 | NIAID, 2016", "assay": "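Regulators of Tlr4 signalling leading to Tnf-alpha expression in macrophages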 (primary screen)", "system": "RAW264.7 G9 macrophages from mouse bearing reporters for p65 (GFP) and the Tnf promoter (mCherry)", "reagents": "siRNA pool against mouse genes, 100 nM", "duration": "16 h of LPS stimulation, after 2 days of siRNA transfection", "treatment": "bacterial lipopolysaccharide (Salmonella minnesota R595), 10 ng/ml", "measurement": "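Imaged Tnf reporter mCherry in nuclei, minus background, normalised per plate to the median and expressed as robust z-scores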", "scale": "Tnf reporter robust z-score: higher = stronger Tnf promoter reporter signal after LPS", "hit rule": "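a well counts as active at a score of -1.3 or below (Tlr4 knock-down control median) or above 3 (raised signal); controls and wells holding fewer than 50 cells are excluded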", "meaning of the calls": "active = Tnf reporter clearly lowered or raised; inactive = no clear change in Tnf reporter", "note": "The whole screen tested about 17,000 reagents; shown is a random part of them. Of all reagents, about 1,110 (6.6%) are marked active. 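Active means lowered or raised reporter signal; replicate intensities are raw and not normalised per plate.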 Unmarked entries are inactive. Not all columns of the deposit are shown. Reagent sequences are not shown."}
{"Gene":"Cys1 (cystin 1)","Tnf reporter robust z-score":-0.05,"fewer than 50 cells in well":"enough cells in well"}
{"Gene":"Htr7 (5-hydroxytryptamine (serotonin) receptor 7)","Tnf reporter robust z-score":0.44,"fewer than 50 cells in well":"enough cells in well"}
{"Gene":"Myom2 (myomesin 2)","Tnf reporter robust z-score":-0.38,"fewer than 50 cells in well":"enough cells in well"}
{"Gene":"Klrk1 (killer cell lectin-like receptor subfamily K, member 1)","fewer than 50 cells in well":"fewer than 50 cells per well; well left out of calls"}
{"Gene":"Cypt4 (cysteine-rich perinuclear theca 4)","Tnf reporter robust z-score":-1.29,"fewer than 50 cells in well":"enough cells in well"}
{"Gene":"Mal","Tnf reporter robust z-score":-0.54,"fewer than 50 cells in well":"enough cells in well"}
{"Gene":"Rasgrp1 (RAS guanyl releasing protein 1)","fewer than 50 cells in well":"fewer than 50 cells per well; well left out of calls"}
{"Gene":"Sra1 (steroid receptor RNA activator 1)","Tnf reporter robust z-score":"3.88 (active)","fewer than 50 cells in well":"enough cells in well"}

Copied from above (2 entries):
{"Gene":"Rasgrp1 (RAS guanyl releasing protein 1)","fewer than 50 cells in well":"fewer than 50 cells per well; well left out of calls"}
{"Gene":"Sra1 (steroid receptor RNA activator 1)","Tnf reporter robust z-score":"3.88 (active)","fewer than 50 cells in well":"enough cells in well"}

Continued:
{"Gene":"Neu4 (sialidase 4)","Tnf reporter robust z-score":-0.88,"fewer than 50 cells in well":"enough cells in well"}
{"Gene":"1810055G02Rik (RIKEN cDNA 1810055G02 gene)","fewer than 50 cells in well":"fewer than 50 cells per well; well left out of calls"}
{"Gene":"Adam8 (a disintegrin and metallopeptidase domain 8)","Tnf reporter robust z-score":0.86,"fewer than 50 cells in well":"enough cells in well"}
{"Gene":"Irf1 (interferon regulatory factor 1)","Tnf reporter robust z-score":0.56,"fewer than 50 cells in well":"enough cells in well"}
